Test results: patent US10882882B2, “Post fermented tea-derived kaempferol-based compound” (AMOREPACIFIC CORPORATION, priority 2016, dated 2021)
At least one compound was matched to its structure with a doubt left.

Sequences of proteins named here, by UniProt entry; tags and fusion partners are left off. Residues count along the entry.
UniProt P05067, 672-713 limits assumed: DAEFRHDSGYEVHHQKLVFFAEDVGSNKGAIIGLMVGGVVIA

Molecular target: T1, beta amyloid (Aβ1-42) (Homo sapiens, UniProt P05067)
T1 construct: beta amyloid (Aβ1-42, AnaSpec Inc, USA); purchased AnaSpec Inc, USA
Assay: Inhibition of beta amyloid aggregation, fluorescence analysis (ThioflavinT assay)
Format: biochemical
Details: compound 10 μM, Aβ1-42 0.1 mg/ml, 37° C., 150 minutes
Method: The effect of kaempferol3-O-[2-O″-(E)-p-coumaroyl][beta-D-glucopyranosyl-(1→3)-O-alpha-L-rhamnopyranosyl-(1→6)-O-beta-D-glucopyranoside] on inhibition of beta amyloid aggregation was confirmed by the fluorescence analysis (ThioflavinT assay). Specifically, beta amyloid (Aβ1-42, AnaSpec Inc, USA) was obtained and used at a concentration of 0.1 mg/ml and stored at −80° C. before use. Morin (20 μM), phenol red (20 μM), and kaempferol3-O-[2-O″-(E)-p-coumaroyl][beta-D-glucopyranosyl-(1→3)-O-alpha-L-rhamnopyranosyl-(1→6)-O-beta-D-glucopyranoside] (1 mg/ml) were respectively diluted with DMSO so as to be adjusted to the concentrations. […] In the above table, “RFU” denotes the relative fluorescence unit, and “Increased RFU” denotes the amount of aggregated beta amyloid, and “Increased RFU (% of Pos.Cont.)” denotes the percentage value of the amount of aggregated beta amyloid with respect to that of the positive control group. […]

O=S1(=O)OC(c2ccc(O)cc2)(c2ccc(O)cc2)c2ccccc21 [Phenol Red]
Increased RFU (amount of aggregated beta amyloid): 13655 RFU
